Assay results published in PMC3828775.
No constants are given. Whether binding was seen depends on the method and setting. In cells and extracts the contact can be indirect. Binding calls can cover weak binding; strength is not graded here.

Molecular target: T1, Dvl1 (endogenous, rat primary neurons) (rat (endogenous in E18 rat primary neurons)) (UniProt Q9WVB9)
T1 sequence: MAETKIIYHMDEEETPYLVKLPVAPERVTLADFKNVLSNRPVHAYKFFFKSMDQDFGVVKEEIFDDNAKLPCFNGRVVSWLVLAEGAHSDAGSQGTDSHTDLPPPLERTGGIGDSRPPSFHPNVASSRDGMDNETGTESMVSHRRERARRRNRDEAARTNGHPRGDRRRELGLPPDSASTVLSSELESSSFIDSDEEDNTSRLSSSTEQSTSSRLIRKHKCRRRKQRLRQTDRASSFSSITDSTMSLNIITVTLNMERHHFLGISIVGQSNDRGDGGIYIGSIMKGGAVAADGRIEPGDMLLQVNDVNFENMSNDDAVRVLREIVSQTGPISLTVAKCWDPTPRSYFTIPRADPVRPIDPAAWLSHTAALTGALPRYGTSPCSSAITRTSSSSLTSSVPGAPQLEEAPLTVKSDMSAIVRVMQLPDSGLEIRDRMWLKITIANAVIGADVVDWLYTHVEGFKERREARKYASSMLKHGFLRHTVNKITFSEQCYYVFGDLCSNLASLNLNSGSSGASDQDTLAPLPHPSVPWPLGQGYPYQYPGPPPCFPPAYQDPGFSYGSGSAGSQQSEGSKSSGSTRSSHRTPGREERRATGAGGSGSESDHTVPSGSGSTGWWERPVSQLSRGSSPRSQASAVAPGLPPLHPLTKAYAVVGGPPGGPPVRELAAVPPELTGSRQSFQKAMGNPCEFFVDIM
Test: co-IP; endogenous Dvl1 immunoprecipitated with Dvl1 antibody from lysate of cultured E18 rat primary neurons; NP-40 lysis buffer; blot for Dvl1 and Nup358

In the case of Nup358 (endogenous, rat), the binding is reported as “binds”.
